Results from PMC4678300.
Results are given in words; binding and its absence hold for the method and conditions named. In cells and extracts the contact can be indirect. Some binding calls cover weakened binding; strength is not graded here. For some assays here: Tags and fused reporters may be left off the sequences shown.

By UniProt entry, the sequences of proteins in these tests, tags left out.
UniProt P35568: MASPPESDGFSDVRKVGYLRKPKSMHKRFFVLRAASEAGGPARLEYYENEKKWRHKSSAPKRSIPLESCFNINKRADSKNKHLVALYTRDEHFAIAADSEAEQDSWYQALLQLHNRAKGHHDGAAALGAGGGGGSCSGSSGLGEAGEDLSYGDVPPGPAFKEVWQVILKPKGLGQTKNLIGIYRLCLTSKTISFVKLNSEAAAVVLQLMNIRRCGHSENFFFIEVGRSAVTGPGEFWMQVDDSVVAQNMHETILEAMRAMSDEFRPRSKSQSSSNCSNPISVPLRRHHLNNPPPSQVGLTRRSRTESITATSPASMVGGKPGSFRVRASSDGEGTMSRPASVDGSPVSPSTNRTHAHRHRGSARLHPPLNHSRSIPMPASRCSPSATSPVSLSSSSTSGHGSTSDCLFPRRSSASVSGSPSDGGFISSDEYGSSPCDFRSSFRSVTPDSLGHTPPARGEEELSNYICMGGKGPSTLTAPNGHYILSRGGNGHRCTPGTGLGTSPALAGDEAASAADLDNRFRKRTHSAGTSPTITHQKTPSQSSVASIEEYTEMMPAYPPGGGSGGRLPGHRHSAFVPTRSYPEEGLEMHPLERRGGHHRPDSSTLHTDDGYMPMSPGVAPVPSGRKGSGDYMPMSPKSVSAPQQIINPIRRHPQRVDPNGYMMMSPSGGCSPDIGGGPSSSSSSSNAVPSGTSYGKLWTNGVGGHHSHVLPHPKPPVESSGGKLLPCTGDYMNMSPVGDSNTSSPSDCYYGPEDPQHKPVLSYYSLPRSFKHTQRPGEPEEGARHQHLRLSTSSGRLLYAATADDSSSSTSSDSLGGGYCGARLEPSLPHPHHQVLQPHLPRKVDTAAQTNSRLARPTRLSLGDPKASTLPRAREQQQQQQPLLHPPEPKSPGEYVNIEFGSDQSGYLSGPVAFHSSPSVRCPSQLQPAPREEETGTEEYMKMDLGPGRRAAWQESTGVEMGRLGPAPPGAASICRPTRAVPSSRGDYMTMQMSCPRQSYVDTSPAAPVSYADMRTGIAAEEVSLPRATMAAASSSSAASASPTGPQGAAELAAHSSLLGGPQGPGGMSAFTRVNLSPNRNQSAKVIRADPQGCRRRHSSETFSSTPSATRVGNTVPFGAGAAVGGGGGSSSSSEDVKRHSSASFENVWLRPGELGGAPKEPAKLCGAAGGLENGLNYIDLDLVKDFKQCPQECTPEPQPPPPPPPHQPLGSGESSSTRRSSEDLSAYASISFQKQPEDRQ

How the values were obtained:
[1] = biological target: T1, PP4 (protein phosphatase 4), endogenous (human (endogenous in HepG2)) (UniProt P60510); assay: co-IP; endogenous proteins in HepG2 lysate; lysis in 50 mM Tris-HCl pH 8.0, 1% Nonidet P-40, 120 mM NaCl, 1 mM EDTA, 6 mM EGTA, 1 mM DTT; precipitated with anti-PP4 antibody, IRS-1 detected
T1 sequence: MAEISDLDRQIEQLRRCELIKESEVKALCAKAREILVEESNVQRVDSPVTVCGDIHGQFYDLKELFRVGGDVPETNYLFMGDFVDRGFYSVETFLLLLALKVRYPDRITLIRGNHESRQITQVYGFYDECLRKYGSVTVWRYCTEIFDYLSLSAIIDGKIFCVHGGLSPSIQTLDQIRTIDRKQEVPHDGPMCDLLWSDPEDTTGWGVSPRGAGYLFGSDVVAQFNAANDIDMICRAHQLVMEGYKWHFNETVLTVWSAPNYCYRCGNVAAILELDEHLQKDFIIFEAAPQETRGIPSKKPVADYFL

[2] = biological target: T2, HA-tagged PP4 (protein phosphatase 4) (human) (UniProt P60510); assay: co-IP; HA-PP4 transfected into HepG2 cells; lysis in 50 mM Tris-HCl pH 8.0, 1% Nonidet P-40, 120 mM NaCl, 1 mM EDTA, 6 mM EGTA, 1 mM DTT; precipitated with anti-HA antibody, endogenous IRS-1 detected
T2 sequence: T1 sequence

binding [1]: binds
binding [2]: binds
Substance: IRS-1, endogenous (from UniProt P35568 1-1242)
